In patent US20200325476:
Results from cells or extracts need not show a direct contact.

Target: alpha-synuclein A53T (phospho-S129 positive, in mouse brain tissue) (Homo sapiens) (UniProt P37840)
Test: binding assay
Conditions: Cy3.5 aptamer delivered by TfR-aptamer liposome co-localizes with anti-phospho-S129 alpha-synuclein antibody in mouse brain; protein in cells; protein details: transgenic line M83 mouse (Prnp-SNCA*A53T); single-stranded DNA

“ATAGTCCCATCATTCATTGTAAGGAAACGCTACGGGGTGGGTACGGCAAGATATTAGCAAGTGTCA [a-syn-1 (1LBwAAjJ)]”: binds.
